PfKRS1: 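Lysine-tRNA ligase, Plasmodium falciparum 3D7 (UniProt Q8IDJ8). Enzyme assay of the cytosolic lysyl-tRNA synthetase in 384-well plates, read by luminescence. Tested at 30 µM. Higher reads as stronger inhibition, judged from the few compounds that gave an IC50. Of about 69,000 compounds tested this way, about 49 (0.071%) reached 50% or more in at least one test.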
Pks13 thioesterase: 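Enzyme assay of the thioesterase domain of polyketide synthase 13; the read-out is not stated. Target: Polyketide synthase Pks13, Mycobacterium tuberculosis (UniProt I6X8D2). Tested at 30 µM. Higher reads as stronger inhibition (inferred from which compounds were picked for retests). Of about 67,000 compounds tested this way, about 300 (0.46%) reached 50% or more in at least one test.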
MtTrpRS: 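Enzyme assay of tryptophanyl-tRNA synthetase; the read-out is not stated. Target: Tryptophan-tRNA ligase, Mycobacterium tuberculosis (UniProt P9WFT3). Tested at 10 µM. Higher most likely means stronger inhibition; the record gives no direction and few retests gave an IC50. About 65,000 compounds were tested under these conditions; 0.098% (about 64) showed 50% or more at least once.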
TcHisRS: 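Histidine-tRNA ligase, Trypanosoma cruzi CL Brener (UniProt Q4DA54). Enzyme assay of histidyl-tRNA synthetase; the read-out is not stated. Compounds at 30 µM. The record gives no direction; compounds that gave an IC50 in retests scored well above the rest, so higher reads as stronger inhibition. Size under these conditions: about 69,000 compounds, about 31 of them at 50% or above in at least one test.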

The chains behind the UniProt entries cited, without tags or fusion partners. Residues count along the entry.
UniProt Q8IDJ8, 1-583: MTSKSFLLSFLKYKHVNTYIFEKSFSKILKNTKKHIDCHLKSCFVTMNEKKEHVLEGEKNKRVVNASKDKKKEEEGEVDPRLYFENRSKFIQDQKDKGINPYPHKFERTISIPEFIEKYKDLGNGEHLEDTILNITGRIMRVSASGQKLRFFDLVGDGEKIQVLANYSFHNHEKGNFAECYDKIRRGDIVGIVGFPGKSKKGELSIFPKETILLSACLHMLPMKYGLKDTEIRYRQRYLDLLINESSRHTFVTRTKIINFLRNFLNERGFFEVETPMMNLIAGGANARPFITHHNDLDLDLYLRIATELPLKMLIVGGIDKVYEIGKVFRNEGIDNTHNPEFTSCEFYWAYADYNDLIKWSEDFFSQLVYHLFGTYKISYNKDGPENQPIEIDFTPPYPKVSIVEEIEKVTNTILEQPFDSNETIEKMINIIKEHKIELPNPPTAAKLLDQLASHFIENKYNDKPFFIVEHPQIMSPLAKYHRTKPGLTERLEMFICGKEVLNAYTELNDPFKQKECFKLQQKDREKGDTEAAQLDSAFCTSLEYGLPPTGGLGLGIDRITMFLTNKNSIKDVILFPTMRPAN
UniProt I6X8D2, whole entry: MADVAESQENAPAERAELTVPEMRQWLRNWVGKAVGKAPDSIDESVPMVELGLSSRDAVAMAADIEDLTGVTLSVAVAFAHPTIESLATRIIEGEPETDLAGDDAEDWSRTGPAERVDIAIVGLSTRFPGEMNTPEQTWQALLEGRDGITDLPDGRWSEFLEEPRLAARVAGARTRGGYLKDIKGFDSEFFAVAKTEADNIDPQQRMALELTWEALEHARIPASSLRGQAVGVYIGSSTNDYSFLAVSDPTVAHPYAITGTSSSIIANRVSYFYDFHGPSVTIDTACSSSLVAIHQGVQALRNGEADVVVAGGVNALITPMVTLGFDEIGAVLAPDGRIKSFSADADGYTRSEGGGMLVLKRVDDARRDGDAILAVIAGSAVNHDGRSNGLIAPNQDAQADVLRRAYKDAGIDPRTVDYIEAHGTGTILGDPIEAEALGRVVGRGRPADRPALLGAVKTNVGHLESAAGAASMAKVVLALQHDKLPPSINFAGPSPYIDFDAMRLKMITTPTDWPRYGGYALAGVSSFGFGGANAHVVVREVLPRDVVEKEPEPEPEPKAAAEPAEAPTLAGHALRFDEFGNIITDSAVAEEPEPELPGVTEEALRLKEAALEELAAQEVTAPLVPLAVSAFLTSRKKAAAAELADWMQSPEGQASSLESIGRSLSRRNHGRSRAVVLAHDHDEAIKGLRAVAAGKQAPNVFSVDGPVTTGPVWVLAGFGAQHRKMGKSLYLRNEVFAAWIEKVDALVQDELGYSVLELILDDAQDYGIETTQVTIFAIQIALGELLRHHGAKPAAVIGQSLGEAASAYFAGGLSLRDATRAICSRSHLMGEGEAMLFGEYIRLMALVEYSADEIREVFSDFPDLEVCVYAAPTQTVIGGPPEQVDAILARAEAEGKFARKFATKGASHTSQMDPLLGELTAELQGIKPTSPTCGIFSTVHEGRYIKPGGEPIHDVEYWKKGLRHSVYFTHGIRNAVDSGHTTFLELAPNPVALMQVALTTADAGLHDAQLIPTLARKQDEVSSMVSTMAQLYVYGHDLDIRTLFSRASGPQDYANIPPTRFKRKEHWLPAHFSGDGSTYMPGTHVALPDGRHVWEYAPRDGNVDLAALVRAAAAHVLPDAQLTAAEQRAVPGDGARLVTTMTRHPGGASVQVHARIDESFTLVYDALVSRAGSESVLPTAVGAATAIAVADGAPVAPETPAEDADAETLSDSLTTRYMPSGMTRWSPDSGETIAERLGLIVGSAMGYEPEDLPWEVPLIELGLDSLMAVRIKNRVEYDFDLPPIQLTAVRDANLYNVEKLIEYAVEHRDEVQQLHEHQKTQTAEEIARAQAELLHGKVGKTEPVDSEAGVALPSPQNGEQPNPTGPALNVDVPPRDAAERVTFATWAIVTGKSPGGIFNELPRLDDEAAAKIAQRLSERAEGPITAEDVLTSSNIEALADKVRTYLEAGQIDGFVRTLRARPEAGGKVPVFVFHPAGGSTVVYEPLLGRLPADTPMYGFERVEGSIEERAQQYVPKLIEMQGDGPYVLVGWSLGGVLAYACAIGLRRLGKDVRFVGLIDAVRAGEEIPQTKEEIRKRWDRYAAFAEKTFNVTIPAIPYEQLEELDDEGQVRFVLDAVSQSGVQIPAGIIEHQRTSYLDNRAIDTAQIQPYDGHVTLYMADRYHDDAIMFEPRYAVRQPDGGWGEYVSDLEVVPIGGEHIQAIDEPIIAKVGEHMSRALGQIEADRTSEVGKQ
UniProt P9WFT3, whole entry: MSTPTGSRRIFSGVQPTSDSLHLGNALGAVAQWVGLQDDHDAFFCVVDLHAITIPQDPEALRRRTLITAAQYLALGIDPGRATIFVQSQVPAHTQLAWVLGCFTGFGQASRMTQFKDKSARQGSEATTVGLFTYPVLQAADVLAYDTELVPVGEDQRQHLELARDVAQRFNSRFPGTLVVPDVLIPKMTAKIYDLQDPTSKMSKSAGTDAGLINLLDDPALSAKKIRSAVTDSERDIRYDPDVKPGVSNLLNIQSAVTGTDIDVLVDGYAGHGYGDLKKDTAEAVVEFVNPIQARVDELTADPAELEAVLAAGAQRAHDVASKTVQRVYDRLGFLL
UniProt Q4DA54, 1-478: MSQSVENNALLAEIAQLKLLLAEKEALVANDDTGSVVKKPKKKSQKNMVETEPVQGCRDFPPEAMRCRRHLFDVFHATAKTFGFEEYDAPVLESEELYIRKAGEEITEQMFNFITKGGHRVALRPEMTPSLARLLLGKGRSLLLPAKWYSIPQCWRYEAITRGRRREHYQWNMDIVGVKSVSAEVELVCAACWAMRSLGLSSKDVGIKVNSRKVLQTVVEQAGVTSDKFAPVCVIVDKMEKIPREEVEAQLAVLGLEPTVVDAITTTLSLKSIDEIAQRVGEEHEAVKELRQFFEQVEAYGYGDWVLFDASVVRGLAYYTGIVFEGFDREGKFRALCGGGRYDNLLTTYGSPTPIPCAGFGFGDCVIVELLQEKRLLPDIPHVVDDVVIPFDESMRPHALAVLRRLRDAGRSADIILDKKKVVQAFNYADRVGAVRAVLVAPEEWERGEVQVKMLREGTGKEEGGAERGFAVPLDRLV

Values are the deposited “Percent Effect”, in %. How 0% and 100% were set is not recorded. Most values in the screen are low, and negative values occur. The compounds are a random part of those screened. A dash means the value is not listed here; it may have been measured.

| # | Compound | PfKRS1 | Pks13 thioesterase | MtTrpRS | TcHisRS |
|---|---|---|---|---|---|
| 1 | `N#Cc1cccnc1N1CCC(OCc2ccccc2)CC1` | 1.976% | 46.14% | -2.644% | -0.9901% |
| 2 | `CCCOc1c(Cl)cc(C(=O)N2CCOC23CCN(C)CC3)cc1Cl` | -2.137% | -19.25% | -4.977% | 2.97% |
| 3 | `CCC(O)CNc1ccc(-c2nc(CC(C)C)no2)cn1` (configuration not stated) | -0.7202% | -12.52% | -3.709% | 3.012% |
| 4 | `COCc1cc(C[C@@H]2CC[C@H](O)[C@@H](CNCC(C)C)O2)no1` | 0.3467% | 0.06374% | -3.585% | 6.468% |
| 5 | `CCCn1nnnc1CN(C)C(C)c1ccc(C)cc1` (configuration not stated) | 3.308% | -26.69% | -1.583% | 3.933% |
| 6 | `COc1ccc(CNC(Cc2ccsc2)c2ccc(C)cn2)c(OC)c1` (configuration not stated) | 0.7264% | 5.146% | -5.91% | 5.385% |
| 7 | `CCC(=O)NCC1(O)CCC(C(C)(C)C)CC1` (configuration not stated) | 7.537% | -10.86% | -3.406% | 6.077% |
| 8 | `Cc1cccc(-n2cc(C(=O)N3CCCC(n4cccn4)C3)nn2)c1` (configuration not stated) | 6.856% | -21.1% | 2.424% | -4.151% |
| 9 | `CN(CCc1ccccc1)Cc1nc2c(cnn2C)c(=O)[nH]1` | 1.763% | -5.588% | 3.171% | 3.152% |
| 10 | `O=C(CN1CCCCCC1=O)NC1CCc2nccn2C1` (configuration not stated) | 0.8829% | 42.66% | -4.941% | 6.349% |
| 11 | `N[C@@H]1CCCN(C(=O)Cc2c[nH]c3ccccc23)[C@H]1c1ccccc1F` | 0.4413% | -14.5% | 6.771% | 4.981% |
| 12 | `O=C(c1ccc(Cl)cc1)N1CCC(N2CCCNC2=O)CC1` | 4.132% | -17.68% | 4.754% | 2.959% |
| 13 | `CCC1CN(c2cnn(C)c(=O)c2Cl)CCO1` (configuration not stated) | 1.892% | -28.76% | 3.199% | 2.597% |
| 14 | `Cc1nc(C)n(CC2CN(Cc3noc(C4CC4)n3)CCO2)n1` (configuration not stated) | 1.35% | -2.742% | -7.008% | 2.882% |
| 15 | `COc1cc(CNc2nncs2)cc(OC)c1OC` | 3.727% | 0.1269% | 12.85% | 1.478% |
| 16 | `COCCN(C)Cc1ccc(OC)c(OC(F)F)c1` | 1.248% | -9.606% | 0.4143% | 2.51% |
| 17 | `CSCc1cccc(S(=O)(=O)Nc2cc(C)on2)c1` | 6.304% | -0.2616% | 5.448% | 3.509% |
| 18 | `CCc1cc(N2CCC(n3cc(C(=O)NCC(C)C)nn3)CC2)ncn1` | -1.149% | -11.3% | 3.489% | 5.844% |
| 19 | `COc1ccc(C(C)NC(=O)Cn2ccc(=O)n(C)c2=O)cc1F` (configuration not stated) | 1.099% | -13.1% | 2.215% | 1.994% |
| 20 | `COC1CN(C(=O)Nc2ccccc2)CCC(=O)N(C)c2ccccc21` (configuration not stated) | 4.325% | 10.52% | - | 7.865% |
| 21 | `COCC(=O)N1CCCn2c(CN3CCCC3)nnc2C1` | 0.5851% | -2.144% | 2.768% | 9.045% |
| 22 | `CC(C)CCN1C[C@H]2C[C@H](C(=O)N3CCCC3)[C@@H](C1)O2` | 3.332% | 5.328% | - | 13.33% |
| 23 | `CC(C)CN1CC2(CCN(C(=O)C(O)c3ccccc3Cl)CC2)CC1=O` (configuration not stated) | 3.136% | -6.336% | 5.936% | 10.13% |
| 24 | `CC1CCN(c2cc(CCC3CCCN3)ncn2)CC1` (configuration not stated) | 2.575% | 1.521% | - | 10.64% |
| 25 | `Cc1ccsc1C(=O)NC(C)c1ccc2c(c1)CCC(=O)N2` (configuration not stated) | 3.459% | -42.81% | -1.754% | 2.597% |
| 26 | `CCc1nnc2n1CCN(C(=O)c1ccnc(N(C)C)c1)C2` | -0.1828% | 3.295% | -4.932% | 3.458% |
| 27 | `CC(=O)N1CCc2c(nc(N(C)C)nc2N(C)CCC2CCCCO2)C1` (configuration not stated) | -5.872% | -21.51% | 4.152% | 3.191% |
| 28 | `CN(C)CC(=O)N1CCC2(CC1)CN(c1ccsc1)C(=O)CO2` | -10.71% | -29.71% | 3.172% | 3.825% |
| 29 | `Fc1ccc(C2(c3noc(CCN4CCCCO4)n3)CCOC2)cc1` (configuration not stated) | 4.994% | -7.758% | 1.769% | 1.786% |
| 30 | `CCOc1cc(C(=O)n2cc(C)cn2)cc(OCC)c1OCC` | -0.4551% | 53.3% | -0.4167% | 0.5181% |
| 31 | `Cn1cc(C(=O)NCc2cncc3c2CCNC3)cn1` | -3.287% | -48.75% | - | 1.508% |
| 32 | `O=C(Cc1cccc(F)c1)NCCNS(=O)(=O)C1CCCC1` | 4.576% | -1.998% | 3.689% | 12.87% |
| 33 | `Cc1cc(CN(C)C(=O)C(c2ccccc2F)N(C)C)ccn1` (configuration not stated) | 0.3828% | - | 0.8051% | 0.8% |
| 34 | `O=C1NCCN(Cc2cccnc2)C1CC(=O)N1CCc2n[nH]cc2C1` (configuration not stated) | -0.8315% | 3.919% | -2.549% | 4.938% |
| 35 | `Cc1nnc(N2CCC(NS(C)(=O)=O)CC2)c(C#N)c1C` | 12.08% | -13.18% | 4.801% | -0.8403% |
| 36 | `CCc1nc(C2CCCN2CC(=O)Nc2sc(C)c(C)c2C)no1` (configuration not stated) | 1.843% | -20.74% | 4.077% | 5.344% |
| 37 | `Cn1cc(Br)c(C(=O)NCCn2cc(Br)cn2)n1` | 1.306% | -18.64% | 4.588% | 2.632% |
| 38 | `Cc1nccn1CC1CCCN1S(=O)(=O)Cc1ccccc1F` (configuration not stated) | 11.46% | -32.58% | -2.439% | 3.008% |
| 39 | `Cc1ccc(OCc2ccc(C(=O)O)s2)cc1C` | 5.983% | -0.3938% | -10.36% | 2.609% |
| 40 | `COCCOc1ccc(CNCC2CNc3cc(C)nn3C2)cn1` (configuration not stated) | -0.1083% | -9.093% | -6.591% | 4.734% |
| 41 | `CCOCC1CN(C(=O)[C@H]2CCCO2)Cc2nnn(CC3CC3)c21` (some centres not stated) | 6.089% | -5.302% | 8.624% | 9.816% |
| 42 | `COCC(=O)NC1CC2(CCN(CC3CC3)CC2)Oc2ccccc21` (configuration not stated) | 3.012% | -19.02% | 5.669% | 5.825% |
| 43 | `CCCC(=O)N(CCCN1CCOCC1)c1nc2c(Cl)cccc2s1` | 1.143% | -44.82% | -3.267% | 9.278% |
| 44 | `CSCc1cccc(S(=O)(=O)NCc2cnn(C)c2C)c1` | -0.7065% | -7.057% | -4.262% | 7.937% |
| 45 | `Cc1c(CC(=O)N2CCSCC2)nnn1-c1cccc(Cl)c1` | -2.753% | -24.57% | 2.776% | -2.242% |
| 46 | `Cc1nc(N2CCOCC2)nc2c1CCN(Cc1ccsc1)CC2` | 2.902% | -11.7% | -5.862% | 7.609% |
| 47 | `O=C(CCc1nc2cccnc2[nH]1)NCc1cccnc1` | 7.102% | -24.33% | -3.216% | -0.5464% |
| 48 | `CCN(Cc1noc(C2CCC2)n1)C(=O)c1cnc2ccccc2c1` | -1.556% | -11.57% | 4.846% | 7% |
| 49 | `COC(=O)c1cc(CN2CCN(c3nc(C)cnc3C)CC2)ccc1O` | 6.329% | -15.13% | -1.732% | 1.01% |
| 50 | `CCn1c(N)nc2cc(C(=O)NCCc3nnc(C)s3)cnc21` | 4.319% | 12.51% | -0.6798% | 2.439% |
| 51 | `Nc1cc(N2CCCC(COc3ccc(F)cc3)C2)nc(N)n1` (configuration not stated) | 2.642% | 10.49% | -5.333% | 7.182% |
| 52 | `Cc1cc(-c2cnn(CCNC(=O)c3cc[nH]n3)c2C2CC2)on1` | 3.005% | 2.828% | - | 4.444% |
| 53 | `COc1nc2ccccc2cc1CN1CCC(CNS(C)(=O)=O)C1` (configuration not stated) | 4.052% | -33.74% | -1.642% | 4.865% |
| 54 | `Fc1ccccc1CN1C[C@@H]2OCCN(c3ncccn3)[C@@H]2C1` | -1.463% | 3.101% | -0.9053% | 1.97% |

5 of the entries, repeated:

With Cc1nc(C)n(CC2CN(Cc3noc(C4CC4)n3)CCO2)n1 (configuration not stated) the screen gave PfKRS1: 1.35%; Pks13 thioesterase: -2.742%; MtTrpRS: -7.008%; TcHisRS: 2.882%.
With CCC(O)CNc1ccc(-c2nc(CC(C)C)no2)cn1 (configuration not stated) the screen gave PfKRS1: -0.7202%; Pks13 thioesterase: -12.52%; MtTrpRS: -3.709%; TcHisRS: 3.012%.
With CCc1nc(C2CCCN2CC(=O)Nc2sc(C)c(C)c2C)no1 (configuration not stated) the screen gave PfKRS1: 1.843%; Pks13 thioesterase: -20.74%; MtTrpRS: 4.077%; TcHisRS: 5.344%.
With COCC(=O)NC1CC2(CCN(CC3CC3)CC2)Oc2ccccc21 (configuration not stated) the screen gave PfKRS1: 3.012%; Pks13 thioesterase: -19.02%; MtTrpRS: 5.669%; TcHisRS: 5.825%.
With O=C(c1ccc(Cl)cc1)N1CCC(N2CCCNC2=O)CC1 the screen gave PfKRS1: 4.132%; Pks13 thioesterase: -17.68%; MtTrpRS: 4.754%; TcHisRS: 2.959%.

Measurements from “University of Dundee, Small-Polar-MMV Screening Library” (2021), ChEMBL document CHEMBL3988442.